# Experimental data: US8692014B2, “Acid addition salts of 5-aminolevulinic acid or its derivatives” (Photocure ASA, priority 2004, dated 2014)
# Some results were stated once for a whole list of compounds, not compound by compound.
# Test system: mouse skin
# Assay: Skin fluorescence after topical application of cream formulations to nude mice (emission 550-750 nm)
# Format: in vivo, Female Balb/c athymic nude mice
# Details: topical cream 0.5 mmol/10 g, excitation 407 nm, FIG. 2
# Description: Different salts of 5-amino-4-oxopentanoic acid or of its esters were formulated in Unguentum Merck for dermal studies. All cream formulations contained 0.5 mmol of substance per 10 g cream to ensure the same molar concentration (assuming that 10 g cream equals 10 ml, the approx. molar concentration is 0.5 mmol/10 ml or 50 mM). Preparation of the formulations is outlined in Table 1 below.
# Method: Female Balb/c athymic nude mice, weighing about 22 g, obtained from the Department of Laboratory Animals, The Norwegian Radium Hospital, Oslo, Norway, were used in the study. Each group consisted of three mice.
# Each mouse received 0.05-0.1 g of formulation (see Example 31) topically applied at the right flank of the body, evenly distributed and covered with a dressing (Opsite Flexigrid; Smith and Nephew Medical Ltd., Hull, England).
# The fiber point measuring device used consisted of a bundle of optical fibers connected to a spectrofluorimeter which produced the excitation light of 407 nm. […] The resulting emission fluorescence spectrum (550-750) nm was collected and led through the remaining fibers into a photomultiplier for quantification. The fluorescence spectrum from the skin was measured at 0, 2, 4, 6, 8, 10, 12 and 24 hours after administration and plotted against time.
substance,measurement,value
Benzyl 5-amino-4-oxopentanoate toluenesulfonate,higher maximal fluorescence than the hydrochloride salt,25-30%
